Hit rate of the full screen: of about 320,000 compounds, about 2,100 (0.66%) were called active. Inconclusive results, whose numbers are uncertain, are shown with a selection of clear calls. Calls come from the whole dose curve; as a rule, active = well fitted inhibition curve with a large enough effect in the signal ratio, with a control signal flat (not every such curve was filed as active); inconclusive = small, poorly fitted or top-dose-only effect, or effect the other way, or a change in a side signal; inactive = flat fitted curve, though single readings scatter; the % refers to the signal ratio. Potencies of inconclusive entries are doubtful fits and often do not repeat.
experiment: qHTS Assay for Lipid Storage Modulators in Drosophila S3 Cells; conditions: BODIPY lipid droplet fluorescence, 18-24 h, cells fed with added oleic acid; lipid storage change, negative = inhibition: at 46.1 µM (top of the series) unless noted
Outline: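 Drosophila S3 cells got compounds at several concentrations plus oleic acid (400 uM solution). Laser-scanning cytometry with 488 nm excitation read lipid droplets at 500-530 nm and cells at 575-640 nm. Percent activity was relative to 20 uM Triacsin C.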
% is set by controls: 0 for no effect and ±100 for the full control effect; potency is the fitted concentration of half-maximal effect.

| Compound | Potency | lipid storage change, negative = inhibition |
| --- | --- | --- |
| Cc1ccc2[nH]c(C(=O)N3CCCCC3)cc2c1 | inconclusive: 16.4 µM [activator, single point] | – |
| O=C(CSc1nc(-c2ccccc2)cc(=O)[nH]1)Nc1ccc(F)c(F)c1 | – | inconclusive: 1.52% |
| CCOc1ccc(/C(O)=C2/C(=O)C(=O)N(CCOCCO)C2c2ccc(F)cc2)cc1 (configuration not stated) | – | inconclusive: 0.887% |
| CC(C)c1nnc(NC(=O)COc2ccccc2[N+](=O)[O-])s1 | – | inactive |
| CCC1CCc2sc(C(=O)NC3CCN(Cc4ccccc4)CC3)cc2C1 (configuration not stated) | inconclusive: 32.6 µM [falling, single point] | – |
| COc1ccc(CN(C)C(=O)C2CCN(S(=O)(=O)c3cccs3)CC2)cc1F | – | inconclusive: 11.3% |
| CCOc1ncccc1C(=O)OCC(=O)Nc1ccc(-c2nc3ccc(C)cc3s2)cc1 | – | inconclusive: -1.77% |
| O=C(Nc1cccc(NC(=O)c2cccc(F)c2)n1)c1cccc(F)c1 | active: 6.51 µM | – |
| Cc1nc(NC(=O)CSc2nnc(-c3ccncc3)n2C)sc1C | inconclusive: 0.0052 µM [activator, full curve, poor fit] | – |
| COc1ccc(N2CCN(C(=O)CN3C(=O)NC(C)(c4ccc5ccccc5c4)C3=O)CC2)cc1 (configuration not stated) | inconclusive: 18.4 µM [falling, single point] | – |
| CN(C)c1ccc(C(=O)OCC(=O)NCC2CCCO2)cc1 (configuration not stated) | – | inconclusive: 9.4% |
| CC/C=C(\NC(C)=O)c1ccccc1 | – | inconclusive: -0.912% |
| CCOc1ccc(N(CC(=O)NCc2cccs2)S(=O)(=O)c2c(C)noc2C)cc1 | – | inconclusive: 4.46% |
| CCn1c(SCC(=O)Nc2sccc2C(N)=O)nnc1C1CC1 | – | inconclusive: 11.7% |
| Cc1cc(C)c2c(=O)n(CC(=O)Nc3cccc(F)c3)sc2n1 | inconclusive: 29.1 µM [cytotoxic, single point] | – |
| CCN(Cc1ccccc1)S(=O)(=O)c1ccc(F)cc1 | – | inconclusive: -7.82% |
| CCN(CC)S(=O)(=O)c1ccc(N2CCOCC2)c(NC(=O)CN2C(=O)NC(C)(c3ccccc3)C2=O)c1 (configuration not stated) | – | inactive |
| O=C(O)c1ccc2nc(C(F)(F)F)[nH]c2c1 | inconclusive: 0.206 µM [falling, partial curve, poor fit] | – |
| COc1cccc(CNCc2ccco2)c1O | inconclusive: 1.84 µM [falling, partial curve] | – |
| Cc1ccccc1N1C(=O)C(Cl)=C(N2CCN(c3ccccc3)CC2)C1=O | – | inconclusive: 14.7% |
| CC12CC3CC(C)(C1)CC(C(=O)NC1=NCCS1)(C3)C2 | – | inconclusive: -5.1% |
| COc1ccc(-n2nc(C(=O)NCC(=O)N(C)Cc3ccccc3)c3ccccc3c2=O)c(OC)c1 | – | inactive |
| O=[N+]([O-])c1ccc2nc(-c3cccnc3)[nH]c2c1 | – | inconclusive: -49.5% |
| O=C(COC(=O)C12CC3CC(CC(Br)(C3)C1)C2)N1CCOCC1 | – | inconclusive: -6.07% |
| O=CN1CCN(c2c([N+](=O)[O-])c(=O)oc3ccccc23)CC1 | – | inconclusive: 2.5% |
| c1ccc(-n2ncc(-c3nn[nH]n3)n2)cc1 | – | inconclusive: -34% |

Record cards, from the list above:
CC(C)c1nnc(NC(=O)COc2ccccc2[N+](=O)[O-])s1 in the list: lipid storage change, negative = inhibition: inactive
O=C(Nc1cccc(NC(=O)c2cccc(F)c2)n1)c1cccc(F)c1 in the list: Potency: active: 6.51 µM
COc1cccc(CNCc2ccco2)c1O in the list: Potency: inconclusive: 1.84 µM [falling, partial curve]
CN(C)c1ccc(C(=O)OCC(=O)NCC2CCCO2)cc1 (configuration not stated) in the list: lipid storage change, negative = inhibition: inconclusive: 9.4%

(cont.)

| Compound | Potency | lipid storage change, negative = inhibition |
| --- | --- | --- |
| O=C(CN1C(=O)COc2ccc(Cl)cc21)Nc1ccc2c(c1)OCCO2 | – | inconclusive: 59.4% |
| O=C(CSc1ccccn1)Nc1nonc1[N+](=O)[O-] | – | inconclusive: 308% |
| O=C1COc2ccc(C(=O)COC(=O)Cc3ccc(F)cc3)cc2N1 | – | inconclusive |
| COc1ccccc1-c1cc(C(=O)N/N=C/c2ccc(C)s2)c2ccccc2n1 | inconclusive: 1.84 µM [rising, partial curve] | – |
| COc1ccc(NC(=O)c2ccc(-c3nn(C)c(=O)c4ccccc34)cc2)cc1 | – | inconclusive: 12.5% |
| COC(=O)CN(c1ccc(C(C)C)cc1)S(=O)(=O)c1c(C)[nH]c(=O)[nH]c1=O | – | inconclusive: 49.9% |
| CC(C)(C)NC(=O)N1c2ccccc2Sc2ccccc21 | – | inconclusive: -8.52% |
| CCOc1ncccc1C(=O)OCc1cccc([N+](=O)[O-])c1 | inconclusive: 0.259 µM [falling, full curve] | – |
| COc1ccccc1NC(=O)c1nn(C)cc1Br | inconclusive: 0.58 µM [activator, single point] | – |
| CC(=O)Nc1cccc(NC(=O)Nc2cccc3ccccc23)c1 | – | inconclusive: 28% |
| CC(C)(C)n1nnnc1C(c1ccc(F)cc1)N(Cc1ccc(F)cc1)Cc1ccco1 (configuration not stated) | – | inconclusive: -88% |
| Cc1cc(Br)ccc1SCC(=O)OCC(=O)NCc1ccco1 | inconclusive: 29.1 µM [falling, single point] | – |
| O=C(Nc1ccc(S(=O)(=O)Nc2cnc3ccccc3n2)cc1)c1ccccc1Br | – | inconclusive: -100% |
| CCCCn1c(N)c(N(CCOC)C(=O)c2ccc(S(=O)(=O)N3CCC(C)CC3)cc2)c(=O)[nH]c1=O | – | inconclusive |
| CC1CCN(S(=O)(=O)c2nnc(NC(=O)COc3ccccc3F)s2)CC1 | – | inconclusive: 11.4% |
| O=C(Nc1c(-c2cccs2)nc2ccccn12)c1ccc2ccccc2c1 | – | inconclusive: 26.6% |
| O=C(Cc1cccs1)N1CCCC(c2nc3c(nnn3Cc3cccc(Cl)c3)c(=O)[nH]2)C1 (configuration not stated) | inconclusive: 13 µM [activator, partial curve] | – |
| COCCN(C(=O)CSc1nnc(-c2ccccc2F)o1)c1c(N)n(CC(C)C)c(=O)[nH]c1=O | – | inconclusive |
| COC(=O)CC1SC(=O)NC1=Nc1ccc(C)cc1 (configuration not stated) | inconclusive: 29.1 µM [activator, single point] | – |
| COc1cccc(N(CC(=O)N/N=C(\C)c2cccs2)S(C)(=O)=O)c1 | inconclusive: 11.6 µM [activator, partial curve] | – |
| CCn1c(C)nc2cc(C(N)=O)ccc21 | – | inconclusive: -23.6% |
| O=C(O)c1ccc2c(c1)CCC2 | – | inconclusive: -24.5% |
| OCC[C@@H]1C[C@H](O)[C@@H](O)[C@@]2(OCc3ccccc32)O1 | – | inconclusive: -15.7% |
| O=C(NCc1ccccn1)c1ccccc1OCc1ccc(Cl)cc1Cl | inconclusive: 0.146 µM [rising, full curve, poor fit] | – |
| CCCc1nnc(NC(=O)CCC(=O)N2CCN(Cc3ccc(C)cc3C)CC2)s1 | inconclusive: 25.9 µM [activator, partial curve, poor fit] | – |
| CCCCn1c(N)c(N(CCC(C)C)C(=O)C2=NN(c3cc(C)ccc3C)C(=O)CC2)c(=O)[nH]c1=O | – | inconclusive |

Three compounds out of the list, ordered by molecular weight, largest number first:

| Compound | Potency | lipid storage change, negative = inhibition |
| --- | --- | --- |
| O=C(Cc1cccs1)N1CCCC(c2nc3c(nnn3Cc3cccc(Cl)c3)c(=O)[nH]2)C1 (configuration not stated) | inconclusive: 13 µM [activator, partial curve] | – |
| CC(C)(C)n1nnnc1C(c1ccc(F)cc1)N(Cc1ccc(F)cc1)Cc1ccco1 (configuration not stated) | – | inconclusive: -88% |
| O=C(Nc1c(-c2cccs2)nc2ccccn12)c1ccc2ccccc2c1 | – | inconclusive: 26.6% |

(cont.)

| Compound | Potency | lipid storage change, negative = inhibition |
| --- | --- | --- |
| CCN(C(=O)COC(=O)c1c(-c2ccccc2)noc1C)c1c(N)n(Cc2ccccc2)c(=O)[nH]c1=O | – | inconclusive: -86.4% |
| CCOC(=O)/C(=N\Nc1ccccc1[N+](=O)[O-])c1csc(N)n1 | – | inconclusive: -20.4% |
| COc1ccc(C2(c3ccc(OC)cc3)NC(=O)N(CC(=O)Nc3ccc(OC)c(OC)c3)C2=O)cc1 | – | inconclusive: 350% |
| CC(C)c1ccc(NC(=O)C2C3C=CC4(O3)C2C(=O)N(CCCN2CCCCC2)C4C(=O)NC2CCCCC2)cc1 (configuration not stated) | – | inactive |
| O=C(CSc1nc2ccccc2c(=O)n1-c1ccccc1)NCc1ccc2c(c1)OCO2 | inconclusive: 6.51 µM [activator, single point] | – |
| Oc1ccc(Nc2nc(Cl)nc(NCc3ccco3)n2)cc1 | – | inconclusive: 27.8% |
| CCn1c(=O)c(C(=O)NNC(=O)c2ccccc2)c(O)c2ccccc21 | inconclusive: 29.1 µM [falling, partial curve, poor fit] | – |
| CCOC(=O)Cn1cc([N+](=O)[O-])c(OC)n1 | active: 23.1 µM | – |
| O=C(CNC(=O)c1ccc(Br)o1)Nc1ccc(F)c(S(=O)(=O)N2CCOCC2)c1 | – | inconclusive |
| CCc1ccc(C(CC(=O)O)N2Cc3ccccc3C2=O)cc1 (configuration not stated) | – | inconclusive: -16.1% |
| COc1cccc(C(=O)C[n+]2ccccc2/C=N/O)c1 | – | inconclusive: 4.29% |
| CCS(=O)(=O)c1ccc2c(c1)N(S(=O)(=O)c1ccc(Cl)cc1)CC(C(=O)O)O2 (configuration not stated) | – | inconclusive: -61.3% |
| Cc1cccc(NC(=O)NCCN2CCCCC2)c1 | – | inconclusive: 58% |
| Nc1cccc(C(=O)N/N=C/c2ccsc2)c1 | – | inconclusive: 8.76% |
| CCCCn1c(N)c(N(CC(C)C)C(=O)c2ccc(OCc3c(C)noc3C)cc2)c(=O)[nH]c1=O | inconclusive: 0.116 µM [activator, full curve, poor fit] | – |
| CCOc1ccc(NC(=O)CC(c2ccccc2)c2ccc(F)cc2)cc1 (configuration not stated) | inconclusive: 6.51 µM [activator, single point] | – |
| Cc1cc(CNC(=O)[C@H]2C[C@@H]2[C@H](NP(=O)(c2ccccc2)c2ccccc2)c2ccccc2)nn1C | – | inconclusive: -3.96% |
| COc1cc(NC(=O)Cn2c([N+](=O)[O-])cnc2C)c(OC)cc1Cl | – | inconclusive: 11.2% |
| S=C(Nc1cccc(Cl)c1)N(CCCN1CCCC1)Cc1cccn1Cc1ccc(Cl)cc1 | inconclusive: 29.1 µM [cytotoxic, single point] | – |
| CC(Sc1nc(O)c(-c2ccccc2)c(=O)[nH]1)C(=O)Nc1ccc(Cl)cc1 (configuration not stated) | – | inconclusive: -3.91% |
| Cn1nnnc1SCC(=O)N1CCc2ccccc21 | – | inconclusive: -26.9% |
| O/N=C1/CCc2cccc3cccc1c23 | – | inconclusive: 135% |
| CCC(=O)Nc1ccc(Cl)c(NC(=O)c2ccc(Br)o2)c1 | inconclusive: 0.0411 µM [activator, full curve, poor fit] | – |
| CCCCc1c(O)nc2sccn2c1=O | – | inactive |
| C=CCc1ccc(OCCCN2CCCC(C)C2)c(OC)c1 (configuration not stated) | inconclusive: 18.4 µM [activator, single point] | – |

— PubChem BioAssay AID2685 (National Center for Advancing Translational Sciences (NCATS), 2010)
